Test results as given in PMC6224402.
No constants are given. Whether binding was seen depends on the method and setting. In cells and extracts the contact can be indirect. Some results given as binding are weak or reduced against the parent protein; the word gives no strength. For part of these data: Sequences can lack the tags named with a protein.

Chains of the proteins cited; added tags and fusions are not shown.
UniProt Q9P1W9: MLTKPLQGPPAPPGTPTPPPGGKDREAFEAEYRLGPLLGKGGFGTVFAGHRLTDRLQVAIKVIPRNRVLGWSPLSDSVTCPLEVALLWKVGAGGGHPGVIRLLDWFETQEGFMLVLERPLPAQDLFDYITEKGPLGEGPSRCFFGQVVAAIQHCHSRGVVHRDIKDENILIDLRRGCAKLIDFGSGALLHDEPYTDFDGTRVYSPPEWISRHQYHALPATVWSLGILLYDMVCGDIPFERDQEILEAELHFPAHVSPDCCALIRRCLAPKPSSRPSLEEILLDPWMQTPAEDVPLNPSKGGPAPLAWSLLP

Experiments:
HA-tagged PIM2 (human) = HA-tagged PIM2 (human) (UniProt Q9P1W9); test: co-IP; HEK293T cells overexpressing tagged proteins; IP buffer lysate; immunoprecipitation with anti-HA or anti-Flag antibody, immunoblotting
[1] = molecular target: Flag-tagged PIM2 (Proviral Insertion in Murine Lymphomas 2) (human) (UniProt Q9P1W9); test: as above
[2] = molecular target: endogenous PIM2 (human (endogenous in MCF-7)) (UniProt Q9P1W9); test: co-IP; endogenous proteins, MCF-7 cell lysate; immunoprecipitation with anti-PIM2 or anti-HK2 antibody, immunoblotting

B1: GFP-tagged N-HK2 (amino acid residues 1–480) (domain or fragment, UniProt P52789 1-480)
chain: MIASHLLAYFFTELNHDQVQKVDQYLYHMRLSDETLLEISKRFRKEMEKGLGATTHPTAAVKMLPTFVRSTPDGTEHGEFLALDLGGTNFRVLWVKVTDNGLQKVEMENQIYAIPEDIMRGSGTQLFDHIAECLANFMDKLQIKDKKLPLGFTFSFPCHQTKLDESFLVSWTKGFKSSGVEGRDVVALIRKAIQRRGDFDIDIVAVVNDTVGTMMTCGYDDHNCEIGLIVGTGSNACYMEEMRHIDMVEGDEGRMCINMEWGAFGDDGSLNDIRTEFDQEIDMGSLNPGKQLFEKMISGMYMGELVRLILVKMAKEELLFGGKLSPELLNTGRFETKDISDIEGEKDGIRKAREVLMRLGLDPTQEDCVATHRICQIVSTRSASLCAATLAAVLQRIKENKGEERLRSTIGVDGSVYKKHPHFAKRLHKTVRRLVPGCDVRFLRSEDGSGKGAAMVTAVAYRLADQHRARQKTLEHLQLS
HA-tagged PIM2 (human)
  binding: binds

B2: HA-tagged HK2 (Hexokinase-II) (enzyme, UniProt P52789 1-917)
chain: MIASHLLAYFFTELNHDQVQKVDQYLYHMRLSDETLLEISKRFRKEMEKGLGATTHPTAAVKMLPTFVRSTPDGTEHGEFLALDLGGTNFRVLWVKVTDNGLQKVEMENQIYAIPEDIMRGSGTQLFDHIAECLANFMDKLQIKDKKLPLGFTFSFPCHQTKLDESFLVSWTKGFKSSGVEGRDVVALIRKAIQRRGDFDIDIVAVVNDTVGTMMTCGYDDHNCEIGLIVGTGSNACYMEEMRHIDMVEGDEGRMCINMEWGAFGDDGSLNDIRTEFDQEIDMGSLNPGKQLFEKMISGMYMGELVRLILVKMAKEELLFGGKLSPELLNTGRFETKDISDIEGEKDGIRKAREVLMRLGLDPTQEDCVATHRICQIVSTRSASLCAATLAAVLQRIKENKGEERLRSTIGVDGSVYKKHPHFAKRLHKTVRRLVPGCDVRFLRSEDGSGKGAAMVTAVAYRLADQHRARQKTLEHLQLSHDQLLEVKRRMKVEMERGLSKETHASAPVKMLPTYVCATPDGTEKGDFLALDLGGTNFRVLLVRVRNGKWGGVEMHNKIYAIPQEVMHGTGDELFDHIVQCIADFLEYMGMKGVSLPLGFTFSFPCQQNSLDESILLKWTKGFKASGCEGEDVVTLLKEAIHRREEFDLDVVAVVNDTVGTMMTCGFEDPHCEVGLIVGTGSNACYMEEMRNVELVEGEEGRMCVNMEWGAFGDNGCLDDFRTEFDVAVDELSLNPGKQRFEKMISGMYLGEIVRNILIDFTKRGLLFRGRISERLKTRGIFETKFLSQIESDCLALLQVRAILQHLGLESTCDDSIIVKEVCTVVARRAAQLCGAGMAAVVDRIRENRGLDALKVTVGVDGTLYKLHPHFAKVMHETVKDLAPKCDVSFLQSEDGSGKGAALITAVACRIREAGQR
[1]
  binding: binds

B3: endogenous HK2 (enzyme, UniProt P52789 1-917)
chain: B2 chain
[2]
  binding: binds
